The source of these data is patent US20230390392A1.

No constants are given. Whether binding was seen depends on the method and setting. Some entries that bind do so weakly or less than the wild type.

For this assay, the target named is T1, CD70 (UniProt P32970).
T1 sequence (looked up): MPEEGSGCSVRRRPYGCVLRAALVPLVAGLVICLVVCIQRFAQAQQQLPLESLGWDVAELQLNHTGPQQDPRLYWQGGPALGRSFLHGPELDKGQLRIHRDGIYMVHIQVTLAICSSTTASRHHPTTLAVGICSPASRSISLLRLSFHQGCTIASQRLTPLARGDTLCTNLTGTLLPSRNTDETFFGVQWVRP
Nature of the assay: flow cytometry, full IgG1 on CD70-expressing cell lines (data not shown).

B1: 58 binder formatted as full IgG1 (antibody, V domains shown)
VH: QVQLVQSGAEVKKPGASVKVSCKASGYTFTSYDINWVRQAPGQGLEWMGVINPSGGGTSYAQKFQGRVTMTRDTSTSTVYMELSSLRSEDTAVYYCARYSGYDWVFDYWGQGTLVTVSS
VL: DIQMTQSPSSLSASVGDRVTITCRASQGIGSWLAWYQQKPGKAPKLLIYAASTLQSGVPSRFSGSGSGTDFTLTISSLQPEDFATYYCQQSYSTPWTFGPGTKVDIK
As to B1, the binding result is “binds”.

B2: 71 binder formatted as full IgG1 (antibody, V domains shown)
VH: QVQLVQSGAEVKKPGASVKVSCKASGYTFTSYDINWVRQAPGQGLEWMGVISPSGGGTSYAQKFQGRVTMTRDTSTSTVYMELSSLRSEDTAVYYCARYYGGNPEGWYFDLWGRGTLVTVSS
VL: DIQMTQSPSSLSASVGDRVTITCRASQSIGNWLAWYQQKPGKAPKLLIYDASDLETGVPSRFSGSGSGTDFTLTISSLQPEDFATYYCQQSYTTPWTFGQGTKVEIK
In the case of B2, the binding entry was “binds”.
